The list shows a part of the results.
Columns and labels:
Assay in all cases: log2 fold change, soluble protein after heating vs DMSO (PISA); higher = thermal stabilisation; K562 lysate, 10 uM; active = over 0.2 and 3.5 SD of the protein, either way, in both replicates (recomputed)
ibrutinib = compound: C=CC(=O)N1CCC[C@@H](n2nc(-c3ccc(Oc4ccccc4)cc3)c3c(N)ncnc32)C1 [ibrutinib]
Outline: (§1)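 The values are log-two fold changes in thermal stability compared with solvent controls and come from duplicates. They were obtained by TMTpro 16plex LC-MS/MS, with channel sums equalised, on the supernatant after 21,000xg for 90 min. That supernatant came from crude K562 extract at 1 mg/mL protein treated with 10 μM compound for 30 min, heated for 3 min across 48°C-58°C, pooled and brought to 0.5% NP-40 at 4°C.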

The chains behind the UniProt entries cited, without tags or fusion partners. Where a name states a change or a piece, a line headed by the entry shows the natural chain unless it says otherwise.
UniProt Q14145, whole entry, looked up: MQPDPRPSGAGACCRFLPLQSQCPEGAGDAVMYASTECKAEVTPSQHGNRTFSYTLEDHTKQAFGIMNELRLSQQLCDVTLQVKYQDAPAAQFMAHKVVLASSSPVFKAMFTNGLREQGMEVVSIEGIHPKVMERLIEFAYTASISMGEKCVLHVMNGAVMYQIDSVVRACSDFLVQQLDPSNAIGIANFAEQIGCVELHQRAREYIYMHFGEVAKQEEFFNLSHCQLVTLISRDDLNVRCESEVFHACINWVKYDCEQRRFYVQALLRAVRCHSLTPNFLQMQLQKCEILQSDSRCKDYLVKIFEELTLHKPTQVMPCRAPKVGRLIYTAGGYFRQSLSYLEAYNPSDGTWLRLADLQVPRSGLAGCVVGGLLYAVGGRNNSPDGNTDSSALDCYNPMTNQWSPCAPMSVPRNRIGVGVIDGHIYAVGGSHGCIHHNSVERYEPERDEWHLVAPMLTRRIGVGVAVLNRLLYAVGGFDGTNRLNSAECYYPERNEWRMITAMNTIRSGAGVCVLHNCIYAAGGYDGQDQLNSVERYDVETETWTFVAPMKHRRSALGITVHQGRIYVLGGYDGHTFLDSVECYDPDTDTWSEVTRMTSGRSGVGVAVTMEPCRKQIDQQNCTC
UniProt Q8NG31: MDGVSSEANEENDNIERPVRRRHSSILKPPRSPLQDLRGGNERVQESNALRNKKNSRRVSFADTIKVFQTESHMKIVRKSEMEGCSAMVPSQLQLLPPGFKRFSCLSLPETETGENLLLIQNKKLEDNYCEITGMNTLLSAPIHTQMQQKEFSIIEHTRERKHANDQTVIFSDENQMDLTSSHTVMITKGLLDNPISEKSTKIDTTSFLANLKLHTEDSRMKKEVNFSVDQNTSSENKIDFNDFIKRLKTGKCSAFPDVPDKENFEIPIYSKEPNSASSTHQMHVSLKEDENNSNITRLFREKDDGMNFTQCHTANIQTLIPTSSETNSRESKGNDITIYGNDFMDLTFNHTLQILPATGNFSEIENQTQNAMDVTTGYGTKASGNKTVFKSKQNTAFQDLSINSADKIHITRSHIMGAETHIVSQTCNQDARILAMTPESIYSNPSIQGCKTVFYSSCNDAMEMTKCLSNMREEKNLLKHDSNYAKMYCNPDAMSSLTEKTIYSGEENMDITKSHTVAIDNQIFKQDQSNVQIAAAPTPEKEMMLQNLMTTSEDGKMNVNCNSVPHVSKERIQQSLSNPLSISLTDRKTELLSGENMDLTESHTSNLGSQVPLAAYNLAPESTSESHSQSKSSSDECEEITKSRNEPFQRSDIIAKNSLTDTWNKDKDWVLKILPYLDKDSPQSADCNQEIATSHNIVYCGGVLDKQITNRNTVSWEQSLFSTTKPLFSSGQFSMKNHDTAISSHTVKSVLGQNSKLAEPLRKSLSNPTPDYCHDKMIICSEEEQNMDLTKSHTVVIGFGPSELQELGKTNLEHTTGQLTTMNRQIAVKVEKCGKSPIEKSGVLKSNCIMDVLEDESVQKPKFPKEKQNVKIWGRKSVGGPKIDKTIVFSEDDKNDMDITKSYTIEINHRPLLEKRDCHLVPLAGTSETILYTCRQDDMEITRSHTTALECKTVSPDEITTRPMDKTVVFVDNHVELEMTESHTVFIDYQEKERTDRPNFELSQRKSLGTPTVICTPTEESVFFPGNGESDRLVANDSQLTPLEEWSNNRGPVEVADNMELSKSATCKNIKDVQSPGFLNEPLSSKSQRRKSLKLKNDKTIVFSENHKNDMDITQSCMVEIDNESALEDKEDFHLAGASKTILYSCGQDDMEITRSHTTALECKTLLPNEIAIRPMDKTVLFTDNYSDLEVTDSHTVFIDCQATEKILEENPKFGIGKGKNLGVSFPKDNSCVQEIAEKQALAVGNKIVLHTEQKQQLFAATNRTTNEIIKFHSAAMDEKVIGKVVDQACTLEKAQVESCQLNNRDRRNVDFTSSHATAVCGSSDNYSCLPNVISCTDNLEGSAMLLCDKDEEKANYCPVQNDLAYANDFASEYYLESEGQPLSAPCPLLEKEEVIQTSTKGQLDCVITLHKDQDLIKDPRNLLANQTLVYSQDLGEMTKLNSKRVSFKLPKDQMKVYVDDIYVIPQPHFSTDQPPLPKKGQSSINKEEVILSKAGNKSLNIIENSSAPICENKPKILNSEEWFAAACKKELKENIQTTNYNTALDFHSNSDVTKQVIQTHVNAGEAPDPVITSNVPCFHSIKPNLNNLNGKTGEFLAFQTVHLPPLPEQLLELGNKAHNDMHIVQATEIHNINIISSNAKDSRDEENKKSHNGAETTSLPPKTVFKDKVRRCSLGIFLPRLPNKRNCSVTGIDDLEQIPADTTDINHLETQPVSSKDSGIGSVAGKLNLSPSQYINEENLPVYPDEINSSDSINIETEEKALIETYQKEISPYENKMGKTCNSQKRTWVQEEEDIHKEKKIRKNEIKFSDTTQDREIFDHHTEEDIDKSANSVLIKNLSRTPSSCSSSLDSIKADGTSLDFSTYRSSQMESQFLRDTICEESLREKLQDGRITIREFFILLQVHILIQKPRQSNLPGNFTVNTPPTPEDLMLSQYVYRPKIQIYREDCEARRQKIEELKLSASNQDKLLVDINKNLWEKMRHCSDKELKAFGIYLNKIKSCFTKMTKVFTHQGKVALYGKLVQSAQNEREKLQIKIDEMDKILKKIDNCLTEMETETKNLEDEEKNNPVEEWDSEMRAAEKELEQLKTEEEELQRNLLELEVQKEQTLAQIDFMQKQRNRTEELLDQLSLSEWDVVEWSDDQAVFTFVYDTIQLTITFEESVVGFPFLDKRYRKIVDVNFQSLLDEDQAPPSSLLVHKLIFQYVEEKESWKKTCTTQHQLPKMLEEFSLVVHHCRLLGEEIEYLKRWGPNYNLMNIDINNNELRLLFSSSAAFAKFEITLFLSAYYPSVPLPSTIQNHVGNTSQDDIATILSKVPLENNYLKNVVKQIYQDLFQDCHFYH
UniProt Q12840: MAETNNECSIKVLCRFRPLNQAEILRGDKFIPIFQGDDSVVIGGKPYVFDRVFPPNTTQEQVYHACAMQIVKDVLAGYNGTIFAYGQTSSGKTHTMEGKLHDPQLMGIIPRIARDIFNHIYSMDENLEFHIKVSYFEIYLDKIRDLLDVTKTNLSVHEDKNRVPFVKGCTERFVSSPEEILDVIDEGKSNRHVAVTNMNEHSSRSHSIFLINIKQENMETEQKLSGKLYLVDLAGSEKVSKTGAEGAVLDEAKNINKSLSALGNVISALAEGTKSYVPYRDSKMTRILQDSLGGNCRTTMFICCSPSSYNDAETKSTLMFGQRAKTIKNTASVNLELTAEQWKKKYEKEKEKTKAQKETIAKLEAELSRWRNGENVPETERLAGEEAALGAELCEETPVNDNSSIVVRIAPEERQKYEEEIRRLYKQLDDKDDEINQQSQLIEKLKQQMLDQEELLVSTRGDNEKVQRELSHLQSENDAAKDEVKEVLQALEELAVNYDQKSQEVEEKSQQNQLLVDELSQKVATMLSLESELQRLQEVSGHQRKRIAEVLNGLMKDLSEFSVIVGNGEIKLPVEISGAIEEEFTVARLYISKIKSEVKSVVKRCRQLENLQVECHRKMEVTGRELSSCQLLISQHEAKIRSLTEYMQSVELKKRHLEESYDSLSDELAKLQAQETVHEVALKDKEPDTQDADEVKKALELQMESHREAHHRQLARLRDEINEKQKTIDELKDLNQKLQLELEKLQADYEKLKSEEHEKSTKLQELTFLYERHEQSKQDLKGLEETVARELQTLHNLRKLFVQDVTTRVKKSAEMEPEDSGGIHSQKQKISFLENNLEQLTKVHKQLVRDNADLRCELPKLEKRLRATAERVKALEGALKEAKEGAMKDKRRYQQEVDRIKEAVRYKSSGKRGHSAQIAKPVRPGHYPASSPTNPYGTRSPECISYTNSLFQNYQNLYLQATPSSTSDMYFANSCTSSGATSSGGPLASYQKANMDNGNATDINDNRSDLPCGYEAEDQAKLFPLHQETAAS
UniProt P13473: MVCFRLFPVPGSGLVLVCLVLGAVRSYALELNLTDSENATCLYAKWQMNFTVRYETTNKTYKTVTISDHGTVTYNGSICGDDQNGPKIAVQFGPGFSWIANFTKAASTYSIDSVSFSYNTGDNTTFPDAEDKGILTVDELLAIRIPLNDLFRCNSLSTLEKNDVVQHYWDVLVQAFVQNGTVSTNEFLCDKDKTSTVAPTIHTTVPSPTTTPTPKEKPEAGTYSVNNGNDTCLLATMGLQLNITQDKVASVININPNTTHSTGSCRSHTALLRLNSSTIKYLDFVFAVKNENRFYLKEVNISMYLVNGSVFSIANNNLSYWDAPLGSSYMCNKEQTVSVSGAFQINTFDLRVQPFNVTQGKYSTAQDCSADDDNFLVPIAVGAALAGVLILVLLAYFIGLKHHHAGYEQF
UniProt Q9UN81: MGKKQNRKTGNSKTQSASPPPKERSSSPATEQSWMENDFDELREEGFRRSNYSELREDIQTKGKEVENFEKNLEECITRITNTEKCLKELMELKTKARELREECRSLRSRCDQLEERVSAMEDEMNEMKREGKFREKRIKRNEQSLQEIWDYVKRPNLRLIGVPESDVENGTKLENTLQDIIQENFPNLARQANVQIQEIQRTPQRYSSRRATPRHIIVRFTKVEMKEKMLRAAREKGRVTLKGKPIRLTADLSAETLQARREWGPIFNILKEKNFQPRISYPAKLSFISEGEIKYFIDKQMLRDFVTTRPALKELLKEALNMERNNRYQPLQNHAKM
UniProt Q9Y496, whole entry, looked up: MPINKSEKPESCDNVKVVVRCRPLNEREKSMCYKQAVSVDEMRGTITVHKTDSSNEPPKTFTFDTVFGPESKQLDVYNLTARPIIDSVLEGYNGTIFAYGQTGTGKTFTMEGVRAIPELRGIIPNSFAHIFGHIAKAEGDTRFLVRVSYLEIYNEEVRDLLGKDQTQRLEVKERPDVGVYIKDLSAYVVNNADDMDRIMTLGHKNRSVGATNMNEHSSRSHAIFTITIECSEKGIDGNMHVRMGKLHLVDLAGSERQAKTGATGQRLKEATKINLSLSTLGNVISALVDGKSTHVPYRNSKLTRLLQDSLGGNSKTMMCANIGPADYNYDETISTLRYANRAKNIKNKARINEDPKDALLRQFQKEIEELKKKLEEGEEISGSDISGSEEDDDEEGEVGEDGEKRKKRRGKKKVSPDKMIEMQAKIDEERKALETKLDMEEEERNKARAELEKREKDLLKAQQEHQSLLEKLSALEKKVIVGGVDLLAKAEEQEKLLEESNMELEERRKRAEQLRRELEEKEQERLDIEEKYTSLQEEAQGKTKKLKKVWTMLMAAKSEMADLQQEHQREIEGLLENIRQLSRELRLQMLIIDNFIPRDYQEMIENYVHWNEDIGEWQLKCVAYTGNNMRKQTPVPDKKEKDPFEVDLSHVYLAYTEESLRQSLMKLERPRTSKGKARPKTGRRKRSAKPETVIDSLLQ
UniProt P11279: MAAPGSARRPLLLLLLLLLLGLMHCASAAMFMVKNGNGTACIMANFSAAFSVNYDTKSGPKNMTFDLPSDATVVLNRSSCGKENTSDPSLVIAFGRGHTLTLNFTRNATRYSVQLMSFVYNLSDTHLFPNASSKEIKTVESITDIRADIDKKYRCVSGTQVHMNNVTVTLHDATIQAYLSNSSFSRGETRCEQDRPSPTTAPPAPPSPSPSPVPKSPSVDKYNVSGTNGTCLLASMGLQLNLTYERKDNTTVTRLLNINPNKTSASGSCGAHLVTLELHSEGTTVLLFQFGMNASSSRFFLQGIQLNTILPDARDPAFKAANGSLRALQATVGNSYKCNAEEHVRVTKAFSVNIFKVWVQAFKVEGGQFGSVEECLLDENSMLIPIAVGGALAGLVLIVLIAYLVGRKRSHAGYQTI
UniProt O00629, whole entry, looked up: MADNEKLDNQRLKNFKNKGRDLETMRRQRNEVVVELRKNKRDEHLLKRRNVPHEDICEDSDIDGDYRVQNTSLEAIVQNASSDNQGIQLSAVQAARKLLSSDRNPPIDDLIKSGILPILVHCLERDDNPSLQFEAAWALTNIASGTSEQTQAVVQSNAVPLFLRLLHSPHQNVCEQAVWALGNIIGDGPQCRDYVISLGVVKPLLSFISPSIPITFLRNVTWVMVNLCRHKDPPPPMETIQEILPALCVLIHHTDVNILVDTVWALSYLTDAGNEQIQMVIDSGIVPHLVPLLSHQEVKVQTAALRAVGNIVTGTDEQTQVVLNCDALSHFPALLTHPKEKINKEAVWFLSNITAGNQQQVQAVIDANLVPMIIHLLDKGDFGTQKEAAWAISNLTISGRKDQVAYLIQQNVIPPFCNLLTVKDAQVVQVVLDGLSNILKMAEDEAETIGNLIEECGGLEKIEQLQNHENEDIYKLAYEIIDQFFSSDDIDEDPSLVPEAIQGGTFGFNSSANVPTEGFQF

[1] = compound: CC(=O)c1cnc2ccc(-c3cc(Cl)c(O)c(Cl)c3)nc2c1N[C@H]1CC[C@H](CN(C)C)CC1
Outline: as §1

ralimetinib = compound: CC(C)(C)Cn1c(N)nc2ccc(-c3[nH]c(C(C)(C)C)nc3-c3ccc(F)cc3)nc21 [ralimetinib]
Outline: as §1

[2] = compound: CC(C)(O)CC(=O)NCCn1ccc2ncnc(Nc3ccc(Oc4cccc(C(F)(F)F)c4)c(Cl)c3)c21
Outline: as §1

[3] = compound: CC(C)C1=C2N=C(C=C(N2N=C1)NCC3=CC=CC=C3)NCCCCCCN
Outline: as §1

[4] = compound: CC1=C(C(CC(=O)N1)C2=CC=C(C=C2)C(F)(F)F)C(=O)NC3=C(C=C4C(=C3)C=NN4)F
Outline: as §1

[5] = compound: CC1=C(C2=C(C=C1)C(=O)C3=CC=CC=C3N2CCCN)C
Outline: as §1

[6] = compound: CC1=C(C=C(C=C1)NC(=O)C2=CC(=CC=C2)C(C)(C)C#N)NC3=CC4=C(C=C3)N=CN(C4=O)C
Outline: as §1

[7] = compound: CC1=C(C=C(C=C1)NC(=O)C2=CC(=CC=C2)N(C)C)NC(=O)C3=CC=C(C=C3)O
Outline: as §1

[8] = compound: CC1=CC=C(C=C1)SC2=C3C=C(SC3=CN=C2)C(=O)N
Outline: as §1

vemurafenib = compound: CCCS(=O)(=O)Nc1ccc(F)c(C(=O)c2c[nH]c3ncc(-c4ccc(Cl)cc4)cc23)c1F [vemurafenib]
Outline: as §1

[9] = compound: CCCS(=O)(=O)Nc1ccc(F)c(C(=O)c2c[nH]c3ncc(Cl)cc23)c1F
Outline: as §1

barasertib = compound: CCN(CCCOc1ccc2c(Nc3cc(CC(=O)Nc4cccc(F)c4)[nH]n3)ncnc2c1)CCOP(=O)(O)O [barasertib]
Outline: as §1

[10] = compound: CC[C@@H]1C(=O)N(C)c2cnc(Nc3ccc(C(=O)NC4CCN(C)CC4)cc3OC)nc2N1C1CCCC1
Outline: as §1

volasertib = compound: CC[C@@H]1C(=O)N(C)c2cnc(Nc3ccc(C(=O)N[C@H]4CC[C@H](N5CCN(CC6CC6)CC5)CC4)cc3OC)nc2N1C(C)C [volasertib]
Outline: as §1

[11] = compound: CCn1c(C(=O)N(C2CC2)C2CC2)cc2c3c(ncn3C)c(Nc3cc(C)n(C)n3)nc21
Outline: as §1

[12] = compound: CCn1cc(-c2ccnc3[nH]c(-c4cccc(CN(C)C)c4)cc23)c(-c2ccc(NC(=O)N(C)C)cc2)n1
Outline: as §1

[13] = compound: CN1CCC(CNc2ccc3ncc(-c4cccc(OC(F)(F)F)c4)n3n2)CC1
Outline: as §1

saracatinib = compound: CN1CCN(CCOc2cc(OC3CCOCC3)c3c(Nc4c(Cl)ccc5c4OCO5)ncnc3c2)CC1 [saracatinib]
Outline: as §1

sotrastaurin = compound: CN1CCN(c2nc(C3=C(c4c[nH]c5ccccc45)C(=O)NC3=O)c3ccccc3n2)CC1 [sotrastaurin]
Outline: as §1

Measured: log2 fold change

KEAP1 (UniProt Q14145)
inactive: ibrutinib 0.014 | [1] 0.001 | ralimetinib 0.017 | [2] -0.014 | [3] -0.015 | [4] -0.026 | [5] -0.049 | [6] 0.012 | [7] 0.019 | [8] -0.024 | vemurafenib 0.014 | [9] 0 | barasertib 0.01 | [10] -0.008 | volasertib -0.001 | [11] -0.016 | [12] -0.017 | [13] 0.044 | saracatinib -0.018 | sotrastaurin 0.033

L3HYPDH (UniProt Q96EM0)
inactive: ibrutinib -0.004 | [1] 0.039 | ralimetinib -0.021 | [2] -0.004 | [3] 0.004 | [4] -0.044 | [5] -0.001 | [6] 0.032 | [7] 0.018 | [8] -0.024 | vemurafenib 0.04 | [9] 0.033 | barasertib 0.015 | [10] 0.002 | volasertib -0.017 | [11] 0.011 | [12] 0.01 | [13] 0.012 | saracatinib -0.027 | sotrastaurin -0.008

KMT2C isoform 3 (UniProt Q8NEZ4)
inactive: ibrutinib 0.027 | [1] 0.013 | ralimetinib 0 | [2] -0.048 | [3] 0.001 | [4] -0.027 | [5] -0.027 | [6] 0.044 | [7] 0.014 | [8] -0.021 | vemurafenib 0 | [9] -0.033 | barasertib 0.006 | [10] -0.041 | volasertib -0.048 | [11] 0.024 | [12] -0.035 | [13] 0.175 | saracatinib -0.008 | sotrastaurin 0

KNL1 (UniProt Q8NG31)
inactive: ibrutinib 0.009 | [1] -0.014 | ralimetinib 0.012 | [2] -0.032 | [3] 0.013 | [4] 0.012 | [5] -0.022 | [6] 0 | [7] 0.004 | [8] 0.012 | vemurafenib -0.031 | [9] 0.064 | barasertib 0.011 | [10] -0.015 | volasertib -0.044 | [11] -0.012 | [12] 0.015 | [13] 0 | saracatinib 0.006 | sotrastaurin 0.025

KHSRP (UniProt Q92945)
inactive: ibrutinib 0.017 | [1] 0 | ralimetinib 0.003 | [2] -0.005 | [3] -0.016 | [4] -0.004 | [5] 0.036 | [6] -0.19 | [7] 0.009 | [8] -0.016 | vemurafenib -0.033 | [9] -0.01 | barasertib -0.01 | [10] 0.036 | volasertib 0.004 | [11] 0.032 | [12] 0.058 | [13] 0.004 | saracatinib 0.003 | sotrastaurin -0.001

LACTB2 (UniProt Q53H82)
inactive: ibrutinib 0.019 | [1] -0.002 | ralimetinib -0.034 | [2] -0.014 | [3] -0.032 | [4] 0.008 | [5] -0.02 | [6] 0.035 | [7] -0.023 | [8] -0.012 | vemurafenib 0.01 | [9] 0.003 | barasertib 0.004 | [10] 0.044 | volasertib 0.011 | [11] -0.005 | [12] -0.033 | [13] 0.043 | saracatinib 0.012 | sotrastaurin -0.028

2 successive records already listed, quoted:
L3HYPDH (UniProt Q96EM0)
inactive: ibrutinib -0.004 | [1] 0.039 | ralimetinib -0.021 | [2] -0.004 | [3] 0.004 | [4] -0.044 | [5] -0.001 | [6] 0.032 | [7] 0.018 | [8] -0.024 | vemurafenib 0.04 | [9] 0.033 | barasertib 0.015 | [10] 0.002 | volasertib -0.017 | [11] 0.011 | [12] 0.01 | [13] 0.012 | saracatinib -0.027 | sotrastaurin -0.008

KMT2C isoform 3 (UniProt Q8NEZ4)
inactive: ibrutinib 0.027 | [1] 0.013 | ralimetinib 0 | [2] -0.048 | [3] 0.001 | [4] -0.027 | [5] -0.027 | [6] 0.044 | [7] 0.014 | [8] -0.021 | vemurafenib 0 | [9] -0.033 | barasertib 0.006 | [10] -0.041 | volasertib -0.048 | [11] 0.024 | [12] -0.035 | [13] 0.175 | saracatinib -0.008 | sotrastaurin 0

Next part.

KMT2A isoform 3 (UniProt Q03164)
inactive: ibrutinib -0.054 | [1] 0.005 | ralimetinib -0.008 | [2] -0.117 | [3] 0.019 | [4] -0.114 | [5] -0.047 | [6] -0.046 | [7] 0.025 | [8] 0 | vemurafenib 0.044 | [9] -0.033 | barasertib 0.042 | [10] -0.035 | volasertib -0.054 | [11] -0.058 | [12] -0.093 | [13] -0.01 | saracatinib -0.069 | sotrastaurin 0.034

KIF5A (UniProt Q12840)
inactive: ibrutinib 0.002 | [1] 0.006 | ralimetinib 0.012 | [2] -0.039 | [3] -0.011 | [4] -0.008 | [5] -0.006 | [6] -0.008 | [7] -0.015 | [8] 0.006 | vemurafenib 0.013 | [9] 0.006 | barasertib 0.035 | [10] -0.016 | volasertib -0.054 | [11] 0.017 | [12] 0.027 | [13] -0.018 | saracatinib 0.009 | sotrastaurin 0.024

LAMP2 (UniProt P13473)
inactive: ibrutinib -0.005 | [1] -0.008 | ralimetinib 0.005 | [2] -0.019 | [3] -0.031 | [4] 0.027 | [5] 0.023 | [6] -0.034 | [7] 0.001 | [8] 0.02 | vemurafenib -0.03 | [9] 0.002 | barasertib -0.013 | [10] 0.044 | volasertib 0.049 | [11] 0.006 | [12] 0.055 | [13] 0.047 | saracatinib -0.027 | sotrastaurin 0.026

L1RE1 (UniProt Q9UN81)
inactive: ibrutinib -0.036 | [1] -0.1 | ralimetinib -0.005 | [2] -0.101 | [3] -0.008 | [4] 0.057 | [5] -0.023 | [6] -0.016 | [7] 0.023 | [8] 0 | vemurafenib 0.031 | [9] -0.08 | barasertib 0.011 | [10] 0.06 | volasertib 0.033 | [11] -0.147 | [12] -0.012 | [13] -0.006 | saracatinib -0.021 | sotrastaurin -0.035

KIF3A (UniProt Q9Y496)
inactive: ibrutinib -0.06 | [1] -0.145 | ralimetinib 0.063 | [2] -0.211 | [3] 0.131 | [4] 0.035 | [5] -0.179 | [6] -0.057 | [7] -0.061 | [8] -0.011 | vemurafenib 0.012 | [9] 0.034 | barasertib 0.063 | [10] -0.004 | volasertib -0.123 | [11] -0.251 | [12] 0.04 | [13] 0.029 | saracatinib -0.037 | sotrastaurin -0.063

KHDC4 (UniProt Q7Z7F0)
inactive: ibrutinib 0.03 | [1] -0.006 | ralimetinib 0.007 | [2] -0.051 | [3] -0.028 | [4] -0.044 | [5] 0.018 | [6] 0.013 | [7] -0.053 | [8] -0.014 | vemurafenib 0.026 | [9] 0.051 | barasertib -0.019 | [10] 0.064 | volasertib 0.022 | [11] -0.02 | [12] 0.055 | [13] 0.053 | saracatinib 0.043 | sotrastaurin -0.083

LAMP1 (UniProt P11279)
inactive: ibrutinib 0.034 | [1] -0.031 | ralimetinib -0.003 | [2] -0.11 | [3] 0.008 | [4] 0.01 | [5] 0.003 | [6] 0.022 | [7] -0.04 | [8] -0.032 | vemurafenib -0.009 | [9] 0.02 | barasertib 0.001 | [10] 0.059 | volasertib 0.056 | [11] -0.097 | [13] 0.24 | saracatinib 0.018 | sotrastaurin 0.022
active: [12] -0.508

KPTN (UniProt Q9Y664)
inactive: ibrutinib -0.001 | [1] 0.011 | ralimetinib -0.042 | [2] -0.061 | [3] -0.072 | [4] 0.014 | [5] -0.096 | [6] 0.064 | [7] 0.019 | [8] 0.051 | vemurafenib 0.123 | [9] 0.03 | barasertib -0.026 | [10] 0.032 | volasertib -0.023 | [11] -0.024 | [12] -0.048 | [13] 0.057 | saracatinib 0.008 | sotrastaurin 0.011

KPNA4 (UniProt O00629)
inactive: ibrutinib -0.037 | [1] -0.047 | ralimetinib -0.024 | [2] 0.002 | [3] 0.019 | [4] 0.003 | [5] 0.019 | [6] 0.019 | [7] 0 | [8] -0.018 | vemurafenib -0.003 | [9] 0.017 | barasertib -0.089 | [10] 0.048 | volasertib 0.026 | [11] -0.022 | [13] 0.103 | saracatinib -0.032 | sotrastaurin 0.03
active: [12] -0.318

KIDINS220 isoform 4 (UniProt Q9ULH0)
inactive: ibrutinib 0.023 | [1] 0.069 | ralimetinib 0.04 | [2] -0.044 | [3] -0.008 | [4] -0.019 | [5] -0.01 | [6] 0.022 | [7] 0.034 | [8] -0.008 | vemurafenib 0.016 | [9] -0.03 | barasertib 0 | [10] 0.035 | volasertib -0.052 | [11] 0.046 | [12] -0.037 | [13] -0.057 | saracatinib 0.026 | sotrastaurin 0.018

From the supplement of paper PMC10849652
